Results are given in words; binding and its absence hold for the method and conditions named. Binding calls can cover weak binding; strength is not graded here. Where a sequence is shown, tags or fusion partners need not be part of it.

For this experiment, the target named is Fz4-YN/Fz4-YC. The experiment is described as follows: three-component split-YFP BRET in transfected COS-1 cells.

B1: Tspan12-Rlu (human Tspan12 with Renilla luciferase at the C-terminus) (protein, UniProt O95859 1-305, looked up, not shown: large carriers)
chain: MAREDSVKCLRCLLYALNLLFWLMSISVLAVSAWMRDYLNNVLTLTAETRVEEAVILTYFPVVHPVMIAVCCFLIIVGMLGYCGTVKRNLLLLAWYFGSLLVIFCVELACGVWTYEQELMVPVQWSDMVTLKARMTNYGLPRYRWLTHAWNFFQREFKCCGVVYFTDWLEMTEMDWPPDSCCVREFPGCSKQAHQEDLSDLYQEGCGKKMYSFLRGTKQLQVLRFLGISIGVTQILAMILTITLLWALYYDRREPGTDQMMSLKNDNSQHLSCPSVELLKPSLSRIFEHTSMANSFNTHFEMEEL
Take B1: the binding entry is given as “binds”.

The record behind these values is US20150376252A1.
